Paper PMC12287344
No constants are given. Whether binding was seen depends on the method and setting. In cells and extracts the contact can be indirect. Some results given as binding are weak or reduced against the parent protein; the word gives no strength.

Protein sequences, listed by entry. Tags and fused reporters are not part of them.
UniProt P31273: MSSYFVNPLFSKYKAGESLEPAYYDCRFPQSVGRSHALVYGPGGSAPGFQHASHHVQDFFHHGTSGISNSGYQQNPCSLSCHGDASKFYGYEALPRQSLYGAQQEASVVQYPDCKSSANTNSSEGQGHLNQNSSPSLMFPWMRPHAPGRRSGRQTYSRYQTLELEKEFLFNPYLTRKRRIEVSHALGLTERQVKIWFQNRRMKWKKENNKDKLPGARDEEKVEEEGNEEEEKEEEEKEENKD
UniProt Q13547: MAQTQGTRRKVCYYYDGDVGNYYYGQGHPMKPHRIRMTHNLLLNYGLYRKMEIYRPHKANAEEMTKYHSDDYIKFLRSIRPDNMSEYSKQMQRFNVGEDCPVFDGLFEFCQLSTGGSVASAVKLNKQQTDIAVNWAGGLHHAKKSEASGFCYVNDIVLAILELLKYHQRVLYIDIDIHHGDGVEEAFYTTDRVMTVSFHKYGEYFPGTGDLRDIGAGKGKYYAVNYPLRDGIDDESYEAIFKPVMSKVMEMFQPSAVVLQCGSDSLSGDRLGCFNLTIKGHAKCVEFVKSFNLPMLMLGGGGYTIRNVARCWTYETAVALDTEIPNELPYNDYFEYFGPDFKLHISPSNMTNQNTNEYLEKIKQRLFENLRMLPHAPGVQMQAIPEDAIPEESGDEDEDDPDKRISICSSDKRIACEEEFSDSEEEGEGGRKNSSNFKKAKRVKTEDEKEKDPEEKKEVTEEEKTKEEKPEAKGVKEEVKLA

Legend:
[1] = molecular target: Homeobox C8 (HOXC8) (human (endogenous in A549 and H460)) (UniProt P31273); experiment: co-IP; endogenous proteins in A549 or H460 lysate (25 mM Tris-HCl pH 7.4, 150 mM NaCl, 1 mM EDTA, 1% NP-40, 5% glycerol); precipitated with HDAC1 or HOXC8 antibody, normal IgG as negative control, Protein G Dynabeads; western blot
[2] = molecular target: HDAC1 (human (endogenous in A549 and H460)) (UniProt Q13547); experiment: as above
[3] = molecular target: GST-tagged full length HDAC1 (UniProt Q13547); experiment: pull-down; GST-HDAC1 fusion proteins on Glutathione Sepharose 4B beads incubated with A549 cell lysate (20 mM Tris-Cl pH 8.0, 200 mM NaCl, 1 mM EDTA, 0.5% NP-40) for 3 h at 4 °C; HOXC8 detected by western blot; only the target purified

| binding [1] | binding [2] | binding [3] | Substance |
| --- | --- | --- | --- |
| binds | – | – | HDAC1 (from UniProt Q13547 1-482) |
| – | binds | binds | Homeobox C8 (HOXC8) (from UniProt P31273 1-242) |
